According to patent US20130053407A1, “PYRROLO [3,2-D] PYRIMIDIN-3-YL DERIVATIVES USED AS ACTIVATORS OF AMPK” (GlaxoSmithKline LLC, priority 2010, published 2013):
Some of these results come from one statement about several compounds together.

tested on: Human recombinant AMPK; assay: AMPK Enzymatic Assay (Z'Lyte FRET); assay type: biochemical; details: AMPK activation, ATP 100 μM, peptide 2 μM, means of at least 2 independent experiments
Protocol: Human recombinant AMPK (Invitrogen #PV4673 & #PV4675) is used in a FRET assay format (Z'Lyte—Invitrogen). Assay conditions are as follow: ATP 100 μM, peptide (Invitrogen #PR8650) 2 μM, 1% final DMSO in Z'Lyte kinase buffer. Reaction is initiated by addition of 0.2-0.8 ng of AMPK and incubated for 1-hour @ 30° C. A further 1-hour incubation @ 30° C. with the development reagent (Invitrogen #PR5194) is performed. FRET signal is then measured and converted to “% peptide phosphorylation” according to Z′Lyte given calculation procedure. Evaluation of compounds is carried out using concentration-response curves. Final data are expressed in “% activation” calculating the ratio of “% peptide phosphorylation” between compound-condition and basal-condition. […] All data are means of at least 2 independent experiments.

SMILES | pEC50
CCOC(=O)CCn1c(=O)[nH]c2cc(Cl)n(-c3ccc(-c4cccc(OC)c4O)cc3)c2c1=O [Example 61, Ethyl 3-{6-chloro-5-[2′-hydroxy-3′-(methyloxy)-4-biphenylyl]-2,4-dioxo-1,2,4,5-tetrahydro-3H-pyrrolo[3,2-d]pyrimidin-3-yl}propanoate] | greater than 5.5
COc1cccc(-c2ccc(-n3c(Cl)cc4[nH]c(=O)n(-c5cccc(C(=O)O)c5)c(=O)c43)cc2)c1O [Example 62, 3-{6-Chloro-5-[2′-hydroxy-3′-(methyloxy)-4-biphenylyl]-2,4-dioxo-1,2,4,5-tetrahydro-3H-pyrrolo[3,2-d]pyrimidin-3-yl}benzoic acid] | greater than 5.5
COc1cccc(-c2ccc(-n3c(Cl)cc4[nH]c(=O)n(CCC(=O)OC(C)C)c(=O)c43)cc2)c1O [Example 64, 1-Methylethyl 3-{6-chloro-5-[2′-hydroxy-3′-(methyloxy)-4-biphenylyl]-2,4-dioxo-1,2,4,5-tetrahydro-3H-pyrrolo[3,2-d]pyrimidin-3-yl}propanoate] | greater than 5.5
COc1cccc(-c2ccc(-n3c(Cl)cc4[nH]c(=O)n(CC(=O)OC(C)C)c(=O)c43)cc2)c1O [Example 65, 1-Methylethyl {6-chloro-5-[2′-hydroxy-3′-(methyloxy)-4-biphenylyl]-2,4-dioxo-1,2,4,5-tetrahydro-3H-pyrrolo[3,2-d]pyrimidin-3-yl}acetate] | greater than 5.5
CCOC(=O)Cn1c(=O)[nH]c2cc(Cl)n(-c3ccc(-c4cccc(OC)c4O)cc3)c2c1=O [Example 66, Ethyl {6-chloro-5-[2′-hydroxy-3′-(methyloxy)-4-biphenylyl]-2,4-dioxo-1,2,4,5-tetrahydro-3H-pyrrolo[3,2-d]pyrimidin-3-yl}acetate] | greater than 5.5
COc1cccc(-c2ccc(-n3c(Cl)cc4[nH]c(=O)n(C(C)C(=O)O)c(=O)c43)cc2)c1O (stereo not drawn) [Example 67, 2-{6-Chloro-5-[2′-hydroxy-3′-(methyloxy)-4-biphenylyl]-2,4-dioxo-1,2,4,5-tetrahydro-3H-pyrrolo[3,2-d]pyrimidin-3-yl}propanoic acid] | greater than 5.5
